pIC50: −log10 of the molar value. Structures were worked out from names or drawings and are uncertain.
What follows are molecules tested against hPRDM9 (amino acids 195-385) (Homo sapiens, UniProt Q9NQV7) (assay: PRDM9 biochemical assay (radiometric, 3[H] methyl transfer from SAM to biotinylated histone H3 peptide)). Conditions: read-out: PRDM9 IC50; 1 nM hPRDM9, 1 μM biotinylated H3(1-25)K4 peptide, 5 μM 3[H]-SAM, 55 μM un-labeled SAM, 25° C., 30 minutes.
Procedure: The PRDM9 biochemical assay was carried out using a radiometric format involving the transfer of ^3[H] methyl group from S-adenosyl methionine (SAM) to a biotinylated histone H3 peptide (H3(1-25)K4). 10 mM compounds in DMSO were diluted 20 fold in assay buffer (10 mM Tris-HCl, pH 8.5, 10 mM DTT, and 0.01% Triton X-100) before adding […] to a well in a 384 well polypropylene microplate plate and adding 8 μl of reaction mix (1.25 nM hPRDM9 (amino acids 195-385), 1.25 μM biotinylated H3 peptide in assay buffer). The ^3[H]-SAM and cold SAM stock solutions were diluted to 50 μM and 550 μM respectively in assay buffer before aliquoting 1 μl of 50 μM ^3[H]-SAM, 550 μM SAM into each well to initiate the reaction. The assay was performed at 25° C. at the final concentrations of 1 nM hPRDM9, 1 μM peptide, 5 μM ^3[H]-SAM, and 55 μM un-labeled SAM in assay buffer. The reaction was quenched after 30 minutes by adding 25 μl 7.5 M Guanidine-HCl. Quenched reactions were transferred to streptavidin coated Flashplates, diluted two fold in assay buffer, incubated for 1 hour, and read on a Perkin Elmer Topcount instrument. Compound activity was expressed relative to activity of 0.5% (v/v) DMSO treated samples and fit to a four parameter logistic equation to determine IC50 values.

Chains of the proteins cited; added tags and fusions are not shown. Residues count along the entry.
UniProt Q9NQV7, 195-385 limits assumed: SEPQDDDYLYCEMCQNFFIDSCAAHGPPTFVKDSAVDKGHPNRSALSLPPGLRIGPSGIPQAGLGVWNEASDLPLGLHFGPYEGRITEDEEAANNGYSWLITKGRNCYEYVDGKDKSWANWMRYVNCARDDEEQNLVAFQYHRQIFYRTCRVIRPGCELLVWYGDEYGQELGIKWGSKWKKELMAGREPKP

pIC50 | Compound
4.65 | Cc1cc(N2CCC(CCNc3nc(-c4cc(Cl)cc(Cl)c4)no3)CC2)ccn1 [Compound 22]
4.79 | Cc1cc(NC2CC23CCN(c2nc(-c4cc(Cl)cc(Cl)c4)no2)CC3)ccn1 (stereo not drawn)
5.47 | Cc1cc(N2CCOC3(CCN(c4nc(-c5cc(Cl)cc(Cl)c5)no4)CC3)C2)ccn1
